# From the supplement of paper PMC8728848
# The other results are listed elsewhere or left out.
# B1: Pwp7 (Candida glabrata) (protein)
# chain: MGSSHHHHHHSSGLVPRGSHMASKNPVDFPNLCQYPNLDGAVAGFDTEIYNADPSILINFSLWPILQFPKEWHKTIGRAITTQTNFKLPASDTTLFGVSIPTQNILIEFRGYFIPPKSGTYTFALYLTDDGSAMFLGNDAAFPCGNITSWSNPTNDQVSVSDYDPKKKTLTVYMVAGVAYPLRIAYYNREKGGSLTASFVDPDGLTHSDWNGYIWTLPSCDNCKYS
# Assays:
# Assay in all cases: glycan array binding signal (z-score within array); higher = stronger binding
# Conditions in all cases: glycan notation: IUPAC condensed, linker removed
# [1] = biological target: Fuc(a1-2)[GalNAc(a1-3)]Gal(b1-3)GlcNAc(b1-6)GalNAc
# How it was run: (§1)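 The binding signal is a Z-score computed within each array and averaged over linkers. Arrays of the same protein sequence at different concentrations or buffers were also averaged together. Data originate from 3228 arrays in the Consortium for Functional Glycomics database, kept only where the protein sequence was available.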
# [2] = biological target: Fuc(a1-2)[GalNAc(a1-3)]Gal(b1-4)Glc
# How it was run: as §1
# [3] = biological target: Fuc(a1-2)[GalNAc(a1-3)]Gal(b1-4)GlcNAc
# How it was run: as §1
# [4] = biological target: Fuc(a1-2)[GalNAc(a1-3)]Gal(b1-4)GlcNAc(b1-2)Man
# How it was run: as §1
# [5] = biological target: Fuc(a1-2)[GalNAc(a1-3)]Gal(b1-4)GlcNAc(b1-2)Man(a1-3)[Fuc(a1-2)[GalNAc(a1-3)]Gal(b1-4)GlcNAc(b1-2)Man(a1-6)]Man(b1-4)GlcNAc(b1-4)GlcNAc
# How it was run: as §1
# [6] = biological target: Fuc(a1-2)[GalNAc(a1-3)]Gal(b1-4)GlcNAc(b1-2)Man(a1-3)[Fuc(a1-2)[GalNAc(a1-3)]Gal(b1-4)GlcNAc(b1-2)Man(a1-6)]Man(b1-4)GlcNAc(b1-4)[Fuc(a1-6)]GlcNAc
# How it was run: as §1
# [7] = biological target: Fuc(a1-2)[GalNAc(a1-3)]Gal(b1-4)GlcNAc(b1-3)Gal(b1-4)GlcNAc
# How it was run: as §1
# [8] = biological target: Fuc(a1-2)[GalNAc(a1-3)]Gal(b1-4)GlcNAc(b1-3)Gal(b1-4)GlcNAc(b1-3)Gal(b1-4)GlcNAc
# How it was run: as §1
# [9] = biological target: Fuc(a1-2)[GalNAc(a1-3)]Gal(b1-4)GlcNAc(b1-3)GalNAc
# How it was run: as §1
# [10] = biological target: Fuc(a1-2)[GalNAc(a1-3)]Gal(b1-4)GlcNAc(b1-3)[Fuc(a1-2)[GalNAc(a1-3)]Gal(b1-4)GlcNAc(b1-6)]GalNAc
# How it was run: as §1
# [11] = biological target: Fuc(a1-2)[GalNAc(a1-3)]Gal(b1-4)GlcNAc(b1-6)GalNAc
# How it was run: as §1
# [12] = biological target: Fuc(a1-2)[GalNAc(a1-3)]Gal(b1-4)[Fuc(a1-3)]GlcNAc
# How it was run: as §1
# [13] = biological target: Fuc(a1-2)[GalNAc(a1-3)]Gal(b1-4)[Fuc(a1-3)]GlcNAc(b1-3)GalNAc
# How it was run: as §1
# [14] = biological target: Fuc(a1-2)[GalNAc(a1-4)]Gal(b1-4)GlcNAc
# How it was run: as §1
# [15] = biological target: Fuc(a1-2)[GalNAc(b1-3)]Gal
# How it was run: as §1
# Fuc(a1-3)GlcNAc = biological target: Fuc(a1-3)GlcNAc
# How it was run: as §1
# [16] = biological target: Fuc(a1-3)[Gal(b1-4)]Glc6S
# How it was run: as §1
# [17] = biological target: Fuc(a1-3)[Gal(b1-4)]GlcNAc
# How it was run: as §1
# [18] = biological target: Fuc(a1-3)[Gal(b1-4)]GlcNAc(b1-2)Man
# How it was run: as §1
# [19] = biological target: Fuc(a1-3)[Gal(b1-4)]GlcNAc(b1-2)Man(a1-3)[Fuc(a1-3)[Gal(b1-4)]GlcNAc(b1-2)Man(a1-6)]Man(b1-4)GlcNAc(b1-4)GlcNAc
# How it was run: as §1
# [20] = biological target: Fuc(a1-3)[Gal(b1-4)]GlcNAc(b1-2)Man(a1-3)[Fuc(a1-3)[Gal(b1-4)]GlcNAc(b1-2)Man(a1-6)]Man(b1-4)GlcNAc(b1-4)[Fuc(a1-6)]GlcNAc
# How it was run: as §1
# [21] = biological target: Fuc(a1-3)[Gal(b1-4)]GlcNAc(b1-3)Gal(b1-3)[Fuc(a1-4)]GlcNAc
# How it was run: as §1
# [22] = biological target: Fuc(a1-3)[Gal(b1-4)]GlcNAc(b1-3)Gal(b1-4)[Fuc(a1-3)]GlcNAc
# How it was run: as §1
# [23] = biological target: Fuc(a1-3)[Gal(b1-4)]GlcNAc(b1-3)Gal(b1-4)[Fuc(a1-3)]GlcNAc(b1-3)Gal(b1-4)[Fuc(a1-3)]GlcNAc
# How it was run: as §1
# [24] = biological target: Fuc(a1-3)[Gal(b1-4)]GlcNAc(b1-3)GalNAc
# How it was run: as §1
# [25] = biological target: Fuc(a1-3)[Gal(b1-4)]GlcNAc(b1-6)GalNAc
# How it was run: as §1
# [26] = biological target: Fuc(a1-3)[Gal(b1-4)]GlcNAc(b1-6)[Gal(b1-3)GlcNAc(b1-3)]Gal(b1-4)Glc
# How it was run: as §1
# [27] = biological target: Fuc(a1-3)[Gal(b1-4)]GlcNAc6S
# How it was run: as §1
# [28] = biological target: Fuc(a1-3)[Gal3S(b1-4)]Glc
# How it was run: as §1
# [29] = biological target: Fuc(a1-3)[Gal3S(b1-4)]GlcNAc
# How it was run: as §1
# [30] = biological target: Fuc(a1-3)[Gal3S(b1-4)]GlcNAc6S
# How it was run: as §1
# [31] = biological target: Fuc(a1-3)[GalNAc(b1-4)]GlcNAc
# How it was run: as §1
# [32] = biological target: Fuc(a1-3)[GalNAc(b1-4)]GlcNAc6S
# How it was run: as §1
# Fuc(a1-4)GlcNAc = biological target: Fuc(a1-4)GlcNAc
# How it was run: as §1
# Fuc(b1-3)GlcNAc = biological target: Fuc(b1-3)GlcNAc
# How it was run: as §1
# Gal(a1-2)Gal = biological target: Gal(a1-2)Gal
# How it was run: as §1
# Gal(a1-3)Gal = biological target: Gal(a1-3)Gal
# How it was run: as §1
binder,measurement,setting,value
B1,glycan array binding signal (z-score),[1],0.672
same,glycan array binding signal (z-score),[2],-0.719
same,glycan array binding signal (z-score),[3],-0.711
same,glycan array binding signal (z-score),[4],-0.076
same,glycan array binding signal (z-score),[5],-0.186
same,glycan array binding signal (z-score),[6],0.196
same,glycan array binding signal (z-score),[7],-0.963
same,glycan array binding signal (z-score),[8],0.036
same,glycan array binding signal (z-score),[9],1.38
same,glycan array binding signal (z-score),[10],0.835
same,glycan array binding signal (z-score),[11],0.877
same,glycan array binding signal (z-score),[12],-0.052
same,glycan array binding signal (z-score),[13],0.099
same,glycan array binding signal (z-score),[14],-1.38
same,glycan array binding signal (z-score),[15],-0.704
same,glycan array binding signal (z-score),Fuc(a1-3)GlcNAc,-0.973
same,glycan array binding signal (z-score),[16],2.63
same,glycan array binding signal (z-score),[17],-0.528
same,glycan array binding signal (z-score),[18],0.202
same,glycan array binding signal (z-score),[19],-0.667
same,glycan array binding signal (z-score),[20],-0.531
same,glycan array binding signal (z-score),[21],-0.014
same,glycan array binding signal (z-score),[22],-0.693
same,glycan array binding signal (z-score),[23],-0.285
same,glycan array binding signal (z-score),[24],-0.259
same,glycan array binding signal (z-score),[25],-0.313
same,glycan array binding signal (z-score),[26],-0.056
same,glycan array binding signal (z-score),[27],-1.32
same,glycan array binding signal (z-score),[28],-0.507
same,glycan array binding signal (z-score),[29],-1.3
same,glycan array binding signal (z-score),[30],-0.188
same,glycan array binding signal (z-score),[31],-1.03
same,glycan array binding signal (z-score),[32],-0.422
same,glycan array binding signal (z-score),Fuc(a1-4)GlcNAc,0.017
same,glycan array binding signal (z-score),Fuc(b1-3)GlcNAc,-1.54
same,glycan array binding signal (z-score),Gal(a1-2)Gal,-0.396
same,glycan array binding signal (z-score),Gal(a1-3)Gal,-0.455
